Reference: PubChem BioAssay AID590 (National Center for Advancing Translational Sciences (NCATS), 2007)
The campaign covered roughly 59,000 compounds. About 6,500 (11%) were called active. Inconclusive results, whose numbers are uncertain, are shown with a selection of clear calls. Cut-off read from the data, not from the text of the source: active = max dye-equivalent concentration above about 10 nM; inconclusive = mostly about 1.1 nM to 9.6 nM; inactive = weaker than that.

Assay: qHTS Assay for Spectroscopic Profiling in A350 Spectral Region
Conditions: Compound autofluorescence, 340/450 nm, Alexa 350 dye-equivalents; hits give high values

SMILES	max dye-equivalent concentration
Cn1c(SCC(=O)c2ccc(F)cc2)nnc1-c1ccccc1N	inconclusive: 1.1 nM
C=CCOC(=O)C1=C(C)NC(SCC(=O)Nc2ccc(C)c(Cl)c2)=C(C#N)C1c1ccco1 (stereo not given)	active: 240 nM
COC(=O)c1sccc1NC(=O)c1c(C)noc1C	active: 260 nM
Cc1ccccc1Cn1nc(C)c(NC(=O)c2cc3nc(-c4ccco4)cc(C(F)(F)F)n3n2)c1C	active: 35 nM
c1nc(N2CCOCC2)c2sc3nc(N4CCOCC4)c4c(c3c2n1)CCCC4	inactive
COC(=O)CN(c1nc(C)c(Cl)c(OC)n1)S(=O)(=O)c1ccc(C)cc1	inconclusive: 2.6 nM
Cc1ccc(CNS(=O)(=O)c2ccc(C(C)(C)C)cc2)n1C	inconclusive: 1.8 nM
CCOC(=O)CC(=O)CSc1ncnc2c1oc1ccccc12	inconclusive: 1.6 nM
CCCCc1nc(NCCNC(=O)c2ccco2)c(C#N)c2c1CSC(C)(C)C2	active: 250 nM
CCCCNC(=O)CC1N=C2c3ccccc3N=C(SCC(=O)Nc3cccc(C)c3)N2C1=O (stereo not given)	active: 13 nM
CN(C)C(=O)c1ccc(-c2ccc3ncnc(Nc4ccccc4)c3c2)cc1	inconclusive: 3.2 nM
CC1CCc2cc(F)cc3c(O)c(C(=O)NCC4CCCO4)c(=O)n1c23 (stereo not given)	active: 18 nM
CCc1c(C)nc(N)n2c(SCC(=O)Nc3ccccc3OC)nnc12	inconclusive: 3.1 nM
O=C(O)c1ccc(COc2c(F)c(F)cc(F)c2F)cc1	inconclusive: 1.5 nM
COc1ccc(CN2CCN(S(=O)(=O)c3ccc(NC(C)=O)cc3)CC2)cc1OC	inconclusive: 1.5 nM
COc1ccccc1-c1cc(C(F)(F)F)nc(NCc2ccco2)n1	inconclusive: 3.3 nM
O=C(CSC1=Nc2ccccc2C2=NC(c3ccccc3)C(=O)N12)NCC1CCCO1 (stereo not given)	active: 590 nM
O=C(NCCCn1ccnc1)c1cc2c(s1)CCCCC2	inconclusive: 2.5 nM
O=C(NCCc1ccccc1)c1c(O)c2cccc3c2n(c1=O)CC3	inconclusive: 7.5 nM
Fc1ccc(-c2nnc3sc(-c4ccc5c(c4)OCO5)nn23)cc1	active: 36 nM

SMILES	max dye-equivalent concentration
COC(=O)[C@H](C)NC(=O)Nc1ccccc1F	inconclusive: 4.1 nM
CCCCCCCCCCCCCCCC(=O)NCCO	inactive
N#CC1=C(N)SC(N)=C(C#N)C1c1ccoc1	active: 18 nM
Cc1nn(CC(=O)NC(C)c2ccccc2)c(=O)c2ccccc12 (stereo not given)	inconclusive: 4.8 nM
O=C(NCc1cccnc1)Nc1ccc(F)cc1F	inconclusive: 1.9 nM
Cc1ccc(/C=N/n2nnnc2N)o1	inconclusive: 2.8 nM
Cc1cc(=O)n2nc(N3CCCC3C(=O)NCCCN3CCCCC3)sc2n1 (stereo not given)	inactive
Cc1cccc(CNc2ncncc2-c2ccccc2C)c1	inconclusive: 3.3 nM
CCn1c(CSc2nnc3ccccn23)nc2cc(C(=O)O)ccc21	inconclusive: 3.3 nM
O=C(O)Cn1nnnc1SCC(=O)Nc1ccc(OC(F)(F)F)cc1	inactive
O=c1cc(-c2ccccc2)nc2nc(-c3ccco3)[nH]n12	inactive
COc1cc(C(=O)NCC(=O)OCC(=O)c2ccc[nH]2)cc(OC)c1OC	inactive
Cc1nc(NC(=O)c2ccco2)sc1C(=O)Nc1ccc(Br)cc1	active: 11 nM
NS(=O)(=O)c1ccc(CCNC(=O)c2cccnc2)cc1	inconclusive: 6.1 nM
O=S(=O)(c1ccccc1)N1CCC2(CCN(Cc3ccccc3)CC2)CC1	inactive
CCCC(=O)Nc1ccc(NC(=O)CCc2ccccc2)cn1	inactive
CCn1c(COc2ccccc2C)nnc1SCC(=O)CC(=O)Nc1ccccc1	inactive
CN(/N=C\c1ccccc1O)c1ccc2ccccc2n1	inactive
O=c1c2ccccc2cnn1-c1nc2ccccc2s1	active: 210 nM
O=C(Nc1nc(-c2cccs2)c(-c2ccccc2)s1)c1ccco1	active: 16 nM

SMILES	max dye-equivalent concentration
Cc1ccc(C)c(S(=O)(=O)Nc2ccc3scnc3c2)c1	inactive
Nc1nc(SCC(=O)C23CC4CC(CC(C4)C2)C3)n[nH]1	inconclusive: 1.2 nM
CC1C(c2ccccc2)N(C)CCC12NC(=O)NC2=O (stereo not given)	inconclusive: 3.6 nM
CCNc1ncc2nc(-c3cn(C)c4ccccc34)c(=O)n(C[C@H]3CCCO3)c2n1	inconclusive: 3.9 nM
CCCn1c(=N)n(CC(O)COc2cccc(C)c2)c2ccccc21 (stereo not given)	inactive
COC(=O)c1c(C(=O)OC)n(CCCN)c2ccc(C)cc12	active: 82 nM
CCN(CC)C(=O)C1CCN(CC2CC=CCC2)CC1 (stereo not given)	inconclusive: 3.6 nM
COc1ccc(NC(=O)CN(C)S(=O)(=O)c2cccs2)cc1	inconclusive: 1.4 nM
CCOC(=O)c1c(N)c(C#N)cn1-c1ccccc1	inconclusive: 1.6 nM
COc1cc2cc(CN(Cc3nnnn3C3CCCC3)C3CCCC3)c(=O)[nH]c2cc1OC	active: 690 nM
Cc1ccc(-n2c(Cc3cccn3C)nnc2SCC(=O)Nc2cc(C)on2)cc1	inactive
Cc1[nH]c(=O)[nH]c1CN1CCCCC1	inactive
CCn1c(SCC(=O)c2[nH]c(C)c(C(C)=O)c2C)nnc1-c1ccncc1	inconclusive: 2.6 nM
N#CC1=C(N)SC(N)=C(C#N)C1c1ccnc2ccccc12	inconclusive: 8.8 nM
Cc1cc(C)cc(Nc2ccc(C(=O)O)cc2N)c1	active: 320 nM
CCN(C(=O)c1cnc(N2CCN(c3ncccn3)CC2)c2ccccc12)c1cccc(Cl)c1	active: 40 nM
O=C1c2ccccc2C(=O)N1Cc1nc(-c2ccccn2)no1	inconclusive: 2.4 nM
Oc1oc(-c2ccco2)nc1C=Nc1cccc(Cl)c1	inconclusive: 2.4 nM
NC(=O)c1c(NC(=O)C2CCCO2)sc2c1CCC2 (stereo not given)	inconclusive: 1.6 nM
CCOc1ccccc1NC(=O)CCSc1nc2n[nH]c(C)c2c(=N)n1-c1ccccc1Cl	inactive

As a working copy, part of the list above.
SMILES	max dye-equivalent concentration
CCOC(=O)c1c(N)c(C#N)cn1-c1ccccc1	inconclusive: 1.6 nM
COc1cc2cc(CN(Cc3nnnn3C3CCCC3)C3CCCC3)c(=O)[nH]c2cc1OC	active: 690 nM
Cc1ccc(-n2c(Cc3cccn3C)nnc2SCC(=O)Nc2cc(C)on2)cc1	inactive
Cc1[nH]c(=O)[nH]c1CN1CCCCC1	inactive
CCn1c(SCC(=O)c2[nH]c(C)c(C(C)=O)c2C)nnc1-c1ccncc1	inconclusive: 2.6 nM
N#CC1=C(N)SC(N)=C(C#N)C1c1ccnc2ccccc12	inconclusive: 8.8 nM
Cc1cc(C)cc(Nc2ccc(C(=O)O)cc2N)c1	active: 320 nM
CCN(C(=O)c1cnc(N2CCN(c3ncccn3)CC2)c2ccccc12)c1cccc(Cl)c1	active: 40 nM
O=C1c2ccccc2C(=O)N1Cc1nc(-c2ccccn2)no1	inconclusive: 2.4 nM
Oc1oc(-c2ccco2)nc1C=Nc1cccc(Cl)c1	inconclusive: 2.4 nM
NC(=O)c1c(NC(=O)C2CCCO2)sc2c1CCC2 (stereo not given)	inconclusive: 1.6 nM
CCOc1ccccc1NC(=O)CCSc1nc2n[nH]c(C)c2c(=N)n1-c1ccccc1Cl	inactive
